This is one part of the list.
target: T1, OsSMF1 (Oryza sativa, UniProt Q6ZLB0 1-436); assay: protein-binding microarray (RPBM); PBS, 2% BSA, 51.3 ng/ul salmon testes DNA, 50 uM zinc acetate, 200 nM TF, 25 C, 1 h; high values mean tight binding; conditions: protein: recombinant; tags: N-terminal polyhistidine and DsRed monomer fusion (pET32a); chain copies: 2; label: CyDye5-dUTP incorporated in the synthesized complementary strand; 3' TTTTT single-stranded linker to array surface; dsDNA, one strand shown
T1 sequence: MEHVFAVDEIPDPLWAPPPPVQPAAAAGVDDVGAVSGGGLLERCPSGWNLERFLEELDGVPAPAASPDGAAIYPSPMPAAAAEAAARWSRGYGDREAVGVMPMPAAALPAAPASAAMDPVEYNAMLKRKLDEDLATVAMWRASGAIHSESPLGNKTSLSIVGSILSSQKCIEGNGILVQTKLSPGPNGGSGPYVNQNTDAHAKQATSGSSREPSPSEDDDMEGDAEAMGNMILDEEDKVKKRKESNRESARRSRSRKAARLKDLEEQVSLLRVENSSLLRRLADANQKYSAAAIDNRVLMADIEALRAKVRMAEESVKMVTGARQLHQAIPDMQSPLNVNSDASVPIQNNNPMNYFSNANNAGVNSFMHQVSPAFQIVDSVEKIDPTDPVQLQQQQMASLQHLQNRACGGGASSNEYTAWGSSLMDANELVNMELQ
How it was run: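 Binding signal here means per-feature fluorescence intensity in arbitrary units. The values were read on an Axon 4000B scanner after a custom Agilent array, double-stranded by primer extension with Cy5-dUTP, was incubated with 200 nM protein at 25 °C for 1 h in PBS with 2% BSA, salmon testes DNA and 50 µM zinc acetate, then washed. The proteins were transcription factors with an N-terminal polyhistidine tag and DsRed, expressed in E. coli BL21-CodonPlus and purified on Ni–NTA.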

| Sequence | binding signal |
| --- | --- |
| AGTGGGCCCACGTGCCACGTCACCCGCGGTGTGAATGTGTCGGAGTCACCTAGTGCAG | 19200 fluorescence intensity (a.u.) |
| CACAGATCACCAAGCCACAATCGCCCACACACAAATACTCCGGAGTCACCTAGTGCAG | 3480 fluorescence intensity (a.u.) |
| ATTTCACCTTGCGCCTCAGTCAGCTTTCATCACCACAGCACGGAGTCACCTAGTGCAG | 3580 fluorescence intensity (a.u.) |
| TGGACCCACATGTCAGTGACTCAATGTCACCGAGAATGTCCGGAGTCACCTAGTGCAG | 6000 fluorescence intensity (a.u.) |
| GTTCAGAATCTCCCGGACGGAGCACGAACATGTGTGTTGTCGGAGTCACCTAGTGCAG | 3250 fluorescence intensity (a.u.) |
| GGCCAGTTCTCTTCCACGTGGAGGCGGCCTCTCACAGCCGCGGAGTCACCTAGTGCAG | 10300 fluorescence intensity (a.u.) |
| CTAGGGATTTAAACTCCAGAAGTTGTAATTTTGTGATAAGCGGAGTCACCTAGTGCAG | 27500 fluorescence intensity (a.u.) |
| GGACTGACTTTTGAGTGATCGTCAAACCCGTTGTTACATGCGGAGTCACCTAGTGCAG | 3620 fluorescence intensity (a.u.) |
| CTTATTCTCATGTGGTGTGATGTGTAATTCACATGGTTGACGGAGTCACCTAGTGCAG | 7100 fluorescence intensity (a.u.) |
| GCAAAGAGCCTGCTGAAGACAATGACGATGGACCAGGTATCGGAGTCACCTAGTGCAG | 3390 fluorescence intensity (a.u.) |
| CTCACATATCTGGTGGGCTGGATCCACAGTAAGAAACAGTCGGAGTCACCTAGTGCAG | 32500 fluorescence intensity (a.u.) |
| GAAAATAGATGATTTTCGTTAGCGGTCCCACATCCGCATGCGGAGTCACCTAGTGCAG | 3990 fluorescence intensity (a.u.) |
| TTTCTAGTATTTTGGAATGTCATCCGTGTTTGAGTCGGATCGGAGTCACCTAGTGCAG | 3250 fluorescence intensity (a.u.) |
| ATCTCATCACAACCGCGCGAGCGAGCAGTCACCTGCAGCGCGGAGTCACCTAGTGCAG | 3340 fluorescence intensity (a.u.) |
| GTGCTACAACGTACGCCACGACTTTGCGTACGTCGTGCCACGGAGTCACCTAGTGCAG | 4460 fluorescence intensity (a.u.) |
| AGCCGGAGAGGGGAGATGTTGGCGGCGCACGGGGCAGTTTCGGAGTCACCTAGTGCAG | 3570 fluorescence intensity (a.u.) |
| CACCGCCACCTCCGCCTCCACTACCGCCACCGCCACCGCCCGGAGTCACCTAGTGCAG | 3990 fluorescence intensity (a.u.) |
| GGGCTGCCAATTTGCCAAATCATATTCTCACGCCCTACCTCGGAGTCACCTAGTGCAG | 3590 fluorescence intensity (a.u.) |
| TTAAGTTCTTTTCATCGACTCATTTCGTGCTTTTGTATTTCGGAGTCACCTAGTGCAG | 28900 fluorescence intensity (a.u.) |
| AGTACACGATCCTACGAAATCTTAGATGGTATCCCGATTCCGGAGTCACCTAGTGCAG | 3990 fluorescence intensity (a.u.) |
| ATTATACTCCGGTTTTGGCTGACGTGGCAACTATGTGGCTCGGAGTCACCTAGTGCAG | 14200 fluorescence intensity (a.u.) |

Looked up above:
CACAGATCACCAAGCCACAATCGCCCACACACAAATACTCCGGAGTCACCTAGTGCAG – binding signal: 3480 fluorescence intensity (a.u.)
GTGCTACAACGTACGCCACGACTTTGCGTACGTCGTGCCACGGAGTCACCTAGTGCAG – binding signal: 4460 fluorescence intensity (a.u.)

Further results follow.

| Sequence | binding signal |
| --- | --- |
| TTGTAGAAGTTGAATTTGGTTTTACATATTTGTGGAGTGACGGAGTCACCTAGTGCAG | 61600 fluorescence intensity (a.u.) |
| TCTCCATCGCCATCCACCGCCGTCACCATCACAATAGAGACGGAGTCACCTAGTGCAG | 4160 fluorescence intensity (a.u.) |
| TATTCCTCCAGGCTTCCAGCGTGACCTCGAGTCATCAGTTCGGAGTCACCTAGTGCAG | 4580 fluorescence intensity (a.u.) |
| TATATATAATTCATCACTGATGACAGCTATTCACAATCTTCGGAGTCACCTAGTGCAG | 3320 fluorescence intensity (a.u.) |
| GTTGGTGTCATAACGTATCTATCGGTGTCATAGTATGCTACGGAGTCACCTAGTGCAG | 3560 fluorescence intensity (a.u.) |
| CACACTGAGTCAGCTGCCACGTCGGATAAAACCGGAGTCACGGAGTCACCTAGTGCAG | 10500 fluorescence intensity (a.u.) |
| GGGATAATTCCCGGAGGAAGTTATTTTATCTAATATTAATCGGAGTCACCTAGTGCAG | 30800 fluorescence intensity (a.u.) |
| TGGGTGGACGCATACGTCACAGTCTAGTCAGCCAAAACAACGGAGTCACCTAGTGCAG | 8410 fluorescence intensity (a.u.) |
| CAGGTGCGACACGTCGTTCAGGTGGCTGTCGTCCGCCGTGCGGAGTCACCTAGTGCAG | 8400 fluorescence intensity (a.u.) |
| GCGCGTTGCTGCTGACTCCGGAGCAAAATCGAGCGAGCGCCGGAGTCACCTAGTGCAG | 3360 fluorescence intensity (a.u.) |
| TTCAGTCTTGTCGTCTGAGTTGCCCTGCCATGTGGGCGTCCGGAGTCACCTAGTGCAG | 3260 fluorescence intensity (a.u.) |
| CTCGCTGTCCCCGCACGCTACCGCCCGAAGGGGAAGAAGGCGGAGTCACCTAGTGCAG | 3320 fluorescence intensity (a.u.) |
| TTGCTAAGCTAGCACTAAAATCCAGCGTCCACGTCGAGATCGGAGTCACCTAGTGCAG | 6050 fluorescence intensity (a.u.) |
| ATCCATAACTATGTAACGTCATAGCCACCCAGCCTCGCTTCGGAGTCACCTAGTGCAG | 5580 fluorescence intensity (a.u.) |
| CCGGTCGCTTTCTTCGTCACGTTACCGCGGGAATCATCGTCGGAGTCACCTAGTGCAG | 5310 fluorescence intensity (a.u.) |
| CGGATCAGCCGGCGCTTGCGCGTGCGTGCGCATGATATGTCGGAGTCACCTAGTGCAG | 3440 fluorescence intensity (a.u.) |
| GAAATGGAGGGAAATGGAGTACTATAGTACATTGCAACGACGGAGTCACCTAGTGCAG | 3610 fluorescence intensity (a.u.) |
| GGAGAGCTGACTTGGCGGGGAGGGCGTGTGTTTCGCGTGGCGGAGTCACCTAGTGCAG | 6860 fluorescence intensity (a.u.) |
| ATCGCCACGTCCACGCCTCGCTCGCGTTTTATCCGTTTCGCGGAGTCACCTAGTGCAG | 10200 fluorescence intensity (a.u.) |
| TTTTAGCCTAATTACGTCATGATTAGCCATAAATGCTACACGGAGTCACCTAGTGCAG | 7590 fluorescence intensity (a.u.) |
| GTATTGCTGCTGTGATGGAACAAGCTCAGCAGGGTGACATCGGAGTCACCTAGTGCAG | 3290 fluorescence intensity (a.u.) |
